The structures given here were assigned with low confidence; some may be wrong.
Legend:
[1] = target: 5-HT2C (Homo sapiens (Human), UniProt P28335); test: HTRF IP-One antagonist assay, 5-HT2C; settings: read-out: 5-HT2C IC50; HEK293 cells stably expressing receptor, inositol phosphate accumulation, 80 nM 5-HT in Assay Buffer;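 also: clonal HEK293 line with low 5-HT2C density (10–20 fmol/mg), HTRF detection of IP-One, 10-point dose curves from 10 µM in 5-fold steps, triplicate points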
[2] = target: T1, 5-HT2A (Homo sapiens (Human), UniProt P28223); test: HTRF IP-One antagonist assay, 5-HT2A; settings: read-out: 5-HT2A IC50; HEK293 cells stably expressing receptor, inositol phosphate accumulation, 80 nM 5-HT in Assay Buffer;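 also: clonal line with low receptor density (about 50–70 fmol/mg), 10-point dose-response from 10 µM in 5-fold steps, HTRF detection after 1 hr, triplicate points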
[3] = target: T1, 5-HT2A; test: Radioligand binding assay, [^3H]5-HT competition, 5-HT2A; settings: read-out: 5-HT2A serotonin binding Ki value; [^3H]5-HT radioligand, membranes of HEK293 cells expressing recombinant 5-HT2A; Ki from IC50 by Cheng-Prusoff

Chains of the proteins cited; added tags and fusions are not shown. Residues count along the entry.
UniProt P28335, 33-458 limits assumed: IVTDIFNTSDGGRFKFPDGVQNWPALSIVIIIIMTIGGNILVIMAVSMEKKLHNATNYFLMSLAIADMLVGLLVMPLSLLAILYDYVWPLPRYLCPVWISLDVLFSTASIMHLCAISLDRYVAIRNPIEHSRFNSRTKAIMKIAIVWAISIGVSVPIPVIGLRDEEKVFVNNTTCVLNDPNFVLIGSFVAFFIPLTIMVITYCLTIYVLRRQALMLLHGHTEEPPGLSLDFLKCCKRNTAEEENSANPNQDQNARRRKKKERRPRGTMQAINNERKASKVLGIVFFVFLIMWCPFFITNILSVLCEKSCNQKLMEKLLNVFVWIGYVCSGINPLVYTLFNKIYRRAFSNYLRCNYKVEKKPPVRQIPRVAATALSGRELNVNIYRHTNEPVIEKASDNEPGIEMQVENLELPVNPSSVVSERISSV
UniProt P28223, whole entry: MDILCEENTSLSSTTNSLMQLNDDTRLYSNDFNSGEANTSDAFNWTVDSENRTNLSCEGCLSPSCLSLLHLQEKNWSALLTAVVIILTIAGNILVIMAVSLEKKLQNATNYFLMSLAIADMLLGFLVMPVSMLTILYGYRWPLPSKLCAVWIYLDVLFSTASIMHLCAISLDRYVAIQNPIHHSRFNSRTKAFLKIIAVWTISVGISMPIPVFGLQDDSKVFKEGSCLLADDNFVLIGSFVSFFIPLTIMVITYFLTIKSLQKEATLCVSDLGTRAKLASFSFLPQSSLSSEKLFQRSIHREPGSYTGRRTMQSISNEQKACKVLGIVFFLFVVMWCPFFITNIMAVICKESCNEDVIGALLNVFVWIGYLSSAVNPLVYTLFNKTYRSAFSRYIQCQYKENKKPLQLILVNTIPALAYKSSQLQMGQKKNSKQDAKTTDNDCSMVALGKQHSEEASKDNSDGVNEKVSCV

SMILES: Cc1ncnc(C)c1-c1cc(NC(=O)c2ncsc2C)ccc1OCCN1CCCC1
- IC50 [1]: 100000 nM
- IC50 [2]: 16.1 nM
- Ki [3]: 2.48 nM

Reference: US20250270172A1
